PubChem BioAssay AID1259405 | NCATS, 2018

- Purpose: 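Silenced genes that increase secreted GFP made by CHO cells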 (primary screen)
- System: Chinese hamster CHO-K1 ovary cells with stable secreted eGFP expression
- Reagent: single siRNA against mouse genes, 0.8 pmol siRNA per well (2 µl of 400 nM stock)
- Timing: 3 days
- Detection: 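Per-well intracellular GFP measured by laser scanning cytometry, plus viability from ATP luminescence, each relative to plate median of non-targeting control wells, in %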
- Direction: GFP, % of control: higher = more GFP per well, higher productivity; viability (ATP), % of control: higher = more viable cells (more ATP)
- Rule for the call: 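Called active when intracellular GFP, relative to negative control, is at or above 120%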
The whole screen tested about 50,000 reagents; this is an unselected part. Over the whole deposit, about 4,000 (8%) are marked active. 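Mouse siRNA library applied to hamster cells; one well for each siRNA.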 The numbers tell different reagents against one gene apart. No sequences are given here.

| GFP, % of control | viability (ATP), % of control | activity call | Gene | reagent |
| --- | --- | --- | --- | --- |
| 75.2 | 87.4 | inactive | Top2b | 1 |
| 123 | 113 | active | Top2b | 2 |
| 79.3 | 74.4 | inactive | Top2b | 3 |
| 54.4 | 89 | inactive | Dcxr | 1 |
| 101 | 73.8 | inactive | Dcxr | 2 |
| 55.2 | 57.6 | inactive | Dcxr | 3 |
| 80.8 | 95.6 | inactive | Acat2 | 1 |
| 125 | 113 | active | Acat2 | 2 |
| 93 | 81.8 | inactive | Acat2 | 3 |
| 58.7 | 95.7 | inactive | Kansl2 | 1 |
| 74 | 102 | inactive | Kansl2 | 2 |
| 58.6 | 89 | inactive | Kansl2 | 3 |
| 62.9 | 58.7 | inactive | Tnfrsf1b | 1 |
| 62.3 | 52.2 | inactive | Tnfrsf1b | 2 |
| 50.9 | 50.8 | inactive | Tnfrsf1b | 3 |
| 43.9 | 67.9 | inactive | Zfp945 | 1 |
| 61.4 | 64.9 | inactive | Zfp945 | 2 |
| 84.2 | 108 | inactive | Zfp945 | 3 |
| 71.6 | 92.9 | inactive | Arhgap33 | 1 |
| 96.9 | 61.6 | inactive | Arhgap33 | 2 |
| 63.8 | 62.6 | inactive | Arhgap33 | 3 |
| 92.8 | 75.7 | inactive | Ccr9 | 1 |
| 100 | 86.2 | inactive | Ccr9 | 2 |
| 108 | 92.8 | inactive | Ccr9 | 3 |
| 73.8 | 88.1 | inactive | Gcm1 | 1 |
| 39.9 | 43 | inactive | Gcm1 | 2 |
| 29.6 | 45.8 | inactive | Or51ac3 | 1 |
| 119 | 96.8 | inactive | Or51ac3 | 2 |
| 72.1 | 88.1 | inactive | Or51ac3 | 3 |
| 48.4 | 41.6 | inactive | Cldn34b3 | 1 |
| 46.3 | 48.9 | inactive | Cldn34b3 | 2 |
| 73.7 | 68.8 | inactive | Cldn34b3 | 3 |
| 90.2 | 92.1 | inactive | Nt5c2 | 1 |
| 38.4 | 52.2 | inactive | Nt5c2 | 2 |
| 81.9 | 101 | inactive | Nt5c2 | 3 |

Copied from the list.
Entry of Kansl2 #3 under “GFP, % of control”: 58.6
Acat2 #2, GFP, % of control → 125
For “activity call”, Tnfrsf1b #3 reads inactive
For “GFP, % of control”, Ccr9 #2 reads 100
